# Assay results published in ChEMBL document CHEMBL1201862, “PubChem BioAssay data set” (2004).
# Listed are the inconclusive results; actives and inactives stand elsewhere. No cut-off for these calls is given here. These assays gave more results; the selection is not random.
# Legend:
# [1] = molecular target: T1, Histone-lysine N-methyltransferase EHMT2 (Homo sapiens) (UniProt Q96KQ7); test: qHTS Assay for Inhibitors of Histone Lysine Methyltransferase G9a. [Related pubchem assays (depositor defined):AID504404]; assay type: functional
# T1 sequence (whole entry): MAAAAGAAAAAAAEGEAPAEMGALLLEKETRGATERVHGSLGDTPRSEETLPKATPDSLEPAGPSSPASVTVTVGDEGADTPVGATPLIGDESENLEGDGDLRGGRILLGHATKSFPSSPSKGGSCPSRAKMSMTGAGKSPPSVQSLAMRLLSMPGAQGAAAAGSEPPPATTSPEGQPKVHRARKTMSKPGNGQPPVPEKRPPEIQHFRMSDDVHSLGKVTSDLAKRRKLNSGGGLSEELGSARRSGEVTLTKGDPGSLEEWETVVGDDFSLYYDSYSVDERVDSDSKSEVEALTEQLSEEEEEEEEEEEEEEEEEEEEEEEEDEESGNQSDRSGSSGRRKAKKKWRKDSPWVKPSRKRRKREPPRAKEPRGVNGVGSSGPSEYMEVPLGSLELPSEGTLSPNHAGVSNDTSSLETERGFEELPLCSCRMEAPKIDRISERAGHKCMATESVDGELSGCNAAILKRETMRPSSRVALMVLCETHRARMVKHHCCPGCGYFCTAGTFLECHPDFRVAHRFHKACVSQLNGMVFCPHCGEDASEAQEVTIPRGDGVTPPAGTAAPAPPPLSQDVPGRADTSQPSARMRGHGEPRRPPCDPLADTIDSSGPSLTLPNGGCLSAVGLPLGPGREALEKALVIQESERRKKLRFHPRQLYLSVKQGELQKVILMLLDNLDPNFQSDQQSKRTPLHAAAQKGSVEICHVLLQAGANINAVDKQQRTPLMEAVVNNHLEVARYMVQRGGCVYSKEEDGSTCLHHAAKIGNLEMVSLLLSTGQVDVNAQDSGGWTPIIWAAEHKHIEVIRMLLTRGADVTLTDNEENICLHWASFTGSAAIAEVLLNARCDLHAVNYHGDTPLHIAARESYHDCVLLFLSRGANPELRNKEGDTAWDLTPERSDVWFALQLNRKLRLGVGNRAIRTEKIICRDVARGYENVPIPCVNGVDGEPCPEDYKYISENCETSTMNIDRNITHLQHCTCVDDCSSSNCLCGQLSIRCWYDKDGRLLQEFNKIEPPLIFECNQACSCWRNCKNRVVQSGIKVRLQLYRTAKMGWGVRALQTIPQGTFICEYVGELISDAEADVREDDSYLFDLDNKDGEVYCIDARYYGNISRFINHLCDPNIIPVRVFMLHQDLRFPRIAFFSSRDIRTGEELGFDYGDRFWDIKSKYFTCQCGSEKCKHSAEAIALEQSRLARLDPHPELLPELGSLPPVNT
# [2] = molecular target: Guanine nucleotide-binding protein G(s) subunit alpha isoforms short (Homo sapiens) (UniProt P63092); test: qHTS for Antagonists of gsp, the Etiologic Mutation Responsible for Fibrous Dysplasia/McCune-Albright Syndrome: qHTS.; assay type: functional
smiles,measurement,setting,value
COc1ccc2c(c1O)-c1c(O)c(OC)cc3c1[C@H](C2)[N+](C)(C)CC3.O=[N+]([O-])c1cc([N+](=O)[O-])c(O)c([N+](=O)[O-])c1[O-],Potency,[1],inconclusive: 3.16 µM
same,Potency,[2],inconclusive: 44.7 µM
